Measurements: PubChem BioAssay AID504327 (National Center for Advancing Translational Sciences (NCATS), 2011)
“And” between values parts separate entries of the source, which are not always exact repeats. Equal entries are not always repeated. About 820 (0.21%) of roughly 390,000 compounds were called active. The shares of active, inactive and inconclusive entries below differ from those in the screen. Calls follow the shape of the dose curve; as a rule, active = well fitted inhibition curve with a large enough effect; inconclusive = small, poorly fitted or top-dose-only effect, or another doubt; inactive = no such curve, though single readings can be large or run the other way. Potencies beside an inconclusive call are fits to weak or partial responses and may not hold up.

By UniProt entry, the sequences of proteins in these tests, tags left out.
UniProt Q92830, whole entry, looked up: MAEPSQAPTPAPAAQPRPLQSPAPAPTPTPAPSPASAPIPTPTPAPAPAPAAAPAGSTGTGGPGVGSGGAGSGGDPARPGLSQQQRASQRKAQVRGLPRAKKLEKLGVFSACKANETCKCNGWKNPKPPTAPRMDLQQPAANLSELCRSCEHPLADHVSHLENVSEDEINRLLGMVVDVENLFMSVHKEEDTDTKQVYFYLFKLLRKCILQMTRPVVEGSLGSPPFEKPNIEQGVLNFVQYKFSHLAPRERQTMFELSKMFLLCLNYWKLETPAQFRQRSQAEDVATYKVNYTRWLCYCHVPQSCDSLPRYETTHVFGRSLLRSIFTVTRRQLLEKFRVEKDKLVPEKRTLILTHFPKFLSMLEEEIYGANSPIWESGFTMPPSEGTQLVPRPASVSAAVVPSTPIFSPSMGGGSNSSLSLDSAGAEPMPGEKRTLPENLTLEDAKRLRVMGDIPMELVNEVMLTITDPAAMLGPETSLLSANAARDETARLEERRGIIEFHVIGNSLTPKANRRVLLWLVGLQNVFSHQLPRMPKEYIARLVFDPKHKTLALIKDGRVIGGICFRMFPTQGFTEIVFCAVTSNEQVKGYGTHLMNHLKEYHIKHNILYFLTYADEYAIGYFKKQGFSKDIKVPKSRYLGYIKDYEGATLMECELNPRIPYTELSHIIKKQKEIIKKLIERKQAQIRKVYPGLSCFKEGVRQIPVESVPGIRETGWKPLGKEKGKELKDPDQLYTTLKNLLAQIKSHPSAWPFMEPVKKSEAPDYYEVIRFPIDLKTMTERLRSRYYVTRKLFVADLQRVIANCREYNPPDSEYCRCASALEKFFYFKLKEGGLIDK

target: Histone acetyltransferase KAT2A (Homo sapiens) (UniProt Q92830); test: qHTS Assay for Inhibitors of GCN5L2; settings: GCN5L2 HAT assay, ThioGlo1 CoA-SH fluorescence; activity change, negative = inhibition: at 58.9 µM (top of the series) unless noted
Method in brief: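 Free CoA generated was detected with ThioGlo1 (50uM) fluorescence at Ex340nm/Em540nm, read immediately and after 20 min at room temperature. Enzyme, 20 nM in HEPES pH 7.5 buffer, saw compounds 15 min before adding 75uM H3(1-25) peptide and 70uM acetyl-CoA.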
% is scaled to controls: 0 for no effect and ±100 for the full control effect; potency is read from the fitted curve at half-maximal effect.

Compound | Potency | activity change, negative = inhibition
O=C(CSc1cn[nH]n1)Nc1cccc(C(=O)O)c1 | inconclusive: 15.8 µM [inhibitor, partial curve] | 
COc1ccc(OC)c(NC(=O)c2cccc(S(=O)(=O)N(Cc3ccccc3)c3ccccc3OC)c2)c1 |  | inactive: -7.31%
O=C(Nc1cccc(Cl)c1N1CCOCC1)c1ccc(Br)o1 |  | inactive: -5.16%
COc1cc2c(c(OC)c1OC)-c1c(cc3c(c1OC)OCO3)CC(C)C(C)(O)C2OC(=O)c1ccccc1 (stereo not drawn) | inconclusive: 39.8 µM [inhibitor, single point] | 
Cc1ccc(C(=O)NCCCNC(=O)COc2ccc(Cl)c(C)c2)cn1 | inconclusive: 0.631 µM [inhibitor, single point] | 
O=C(NCC1CCCO1)/C(=C/c1ccc(Cl)cc1)NC(=O)c1ccccc1 (stereo not drawn) | inconclusive: 17.8 µM [inhibitor, single point] | 
COc1ccccc1CNc1ccnc(-c2ccccc2OC)n1 | inconclusive: 39.8 µM [inhibitor, single point] | 
COc1ccc(C(=O)Oc2c(OC)cc(C(=S)N3CCOCC3)cc2OC)cc1OC | inconclusive: 0.316 µM [inhibitor, full curve, poor fit] | 
CCCCn1c(NS(=O)(=O)c2ccccc2)c(S(=O)(=O)c2ccc(C)cc2)c2nc3ccccc3nc21 | inconclusive: 20 µM [inhibitor, single point] | 
O=C(NCCc1ccccc1)C(=O)NCCC1CCCCN1S(=O)(=O)c1ccccc1 (stereo not drawn) |  | inactive: -0.356%
CNC(=S)N(CCc1ccc(S(N)(=O)=O)cc1)C1CC(=O)N(c2ccccc2F)C1=O (stereo not drawn) | inconclusive: 8.91 µM [inhibitor, single point] | 
Cc1cc(=O)oc2c(C)c(OC(C)C(=O)NCC3CCC(C(=O)O)CC3)ccc12 (stereo not drawn) | inconclusive: 0.447 µM [inhibitor, single point] | 
O=C(CCNS(=O)(=O)c1cccs1)Nc1nccs1 | inconclusive: 3.98 µM [inhibitor, partial curve] | 
CC(=O)O[C@@]1(C(C)=O)CCC2C3C=C(Cl)C4=CC(=O)CC[C@]4(C)C3CC[C@]21C (stereo partly drawn) |  | inactive: -10.2%
Cc1cccc(Cc2nnc(CCC(=O)N(C)Cc3ccncc3C)o2)c1 | inconclusive: 25.1 µM [inhibitor, partial curve, poor fit] | 
Nc1ccc(-c2nc3cc(N)ccc3n2CCO)cc1 | inconclusive: 35.5 µM [inhibitor, partial curve] | 
O=C(O)COc1ccc2oc3c(c2c1)CCCC3 | inconclusive: 0.794 µM [inhibitor, single point] | 
CC(=O)OCC1=C(C(=O)O)N2C(=O)C(NC(=O)CCn3nc(C(F)(F)F)c(Br)c3C3CC3)C2SC1 (stereo not drawn) |  | inactive: -1.11%
COc1cc(OC)cc(-c2oc(=O)c3cc(OC)c(OC)cc3c2C#CCCCO)c1 | inconclusive: 28.2 µM [inhibitor, single point] | 
CC(=O)c1ccc(NC(=O)CSc2ccc(-c3ccco3)nn2)cc1 | inconclusive: 1 µM [inhibitor, full curve, poor fit] | 
COc1ccccc1N1CCN(C(=O)c2noc(C(C)C)c2[N+](=O)[O-])CC1 | inconclusive: 31.6 µM [inhibitor, single point] | 
CCc1ccn2cc(-c3cc(-c4ccccc4)no3)nc2c1 | inconclusive: 8.91 µM [inhibitor, single point] | 
COc1ccc(CCNCC(O)COc2ccc(Cl)cc2)cc1OC (stereo not drawn) |  | inactive: -5.82%

Compound | Potency | activity change, negative = inhibition
Cc1cccc(N2CCN(C(=O)c3ccc(NS(=O)(=O)c4c(C)noc4C)cc3)CC2)c1C | inconclusive: 39.8 µM [inhibitor, single point] | 
CCCN1C(=O)C(Cc2nc3ccccc3c(=O)n2CC)c2cc(Br)ccc21 (stereo not drawn) |  | inactive: -1.8%
CCN(C(=O)CN1CCOCC1)c1c(N)n(Cc2ccccc2)c(=O)[nH]c1=O |  | inactive: -6.75%
Cc1c(C)c2ccc(O)c(CN3CCCC3)c2oc1=O | inconclusive: 39.8 µM [inhibitor, single point] | 
COC(=O)C1=C(C)N(C2CCCCC2)C(=O)C1 | inconclusive: 39.8 µM [inhibitor, partial curve, poor fit] | 
CC1=C(C(=O)Nc2ccccc2)C(c2ccc(Cl)cc2)n2c(s/c(=C/c3cccc(OCC(=O)O)c3)c2=O)=N1 (stereo not drawn) | inconclusive: 39.8 µM [inhibitor, single point] | 
CN1CCN(c2nc3c(c(=O)n(C)c(=O)n3C)n2Cc2cccc(Br)c2)CC1 | inconclusive: 35.5 µM [inhibitor, single point] | 
CCn1nc(C)c(/C=N/NC(=O)Cn2cncn2)c1C |  | inactive: -5.58%
Cc1cc(N2CCCC2=O)cc(C)c1S(=O)(=O)NCCOc1ccc(C(C)(C)C)cc1 |  | inactive: -7.26%
CN(Cc1cnn(C)c1)C(=O)C1CCC(=O)N(C2CCCCCC2)C1 (stereo not drawn) | inconclusive: 0.708 µM [inhibitor, full curve] | 
C=CCN(c1ccccc1OC)S(=O)(=O)c1cccc(C(=O)OC2CCOC2=O)c1 (stereo not drawn) | inconclusive: 39.8 µM [inhibitor, single point] | 
Cc1ccc(NC(=S)/C(=C(\[O-])c2ccc(F)cc2)[n+]2ccccc2)cc1 |  | inactive: -0.362%
COc1ccc(S(=O)(=O)NCCc2sc(-c3ccccc3)nc2C)cc1OC |  | inactive: -2.65%
N#Cc1c(SCC(=O)Nc2nc3ccccc3s2)sc2c(O)cc(=O)[nH]c12 | inconclusive: 1.12 µM [inhibitor, full curve] | 
COc1cccc(NC(=O)Cn2c(=O)n(Cc3nc(-c4ccccc4)no3)c(=O)c3ccccc32)c1 |  | inactive: -11.5%
Cc1sc(NC(=O)c2ccc(OCC(C)C)cc2)c(C(N)=O)c1-c1ccc(Cl)cc1Cl | inconclusive: 39.8 µM [inhibitor, single point] | 
Cc1ccc(C(=O)NCCn2c(N)c(C#N)c3nc4ccccc4nc32)cc1 | inconclusive: 35.5 µM [inhibitor, single point] | 
COc1ccc(OC)c(/C=N/NC(=O)c2cc3c(OC)cccc3[nH]2)c1 | inconclusive: 31.6 µM [inhibitor, single point] | 
COc1ccc(-c2nnc3ccc(SCC(=O)NCc4ccco4)nn23)cc1 |  | inactive: -9.89%
Cc1c(C(O)CN2CCN(Cc3ccc4c(c3)OCO4)CC2)c2ccccc2n1C (stereo not drawn) |  | inactive: -13.8%
Cc1cc(OCC(=O)N[C@@H](CSCc2ccccc2)C(=O)O)c2c(C)c(C)c(=O)oc2c1 | inconclusive: 39.8 µM [inhibitor, single point] | 
CC1=C(C(N)=O)C(c2ccccc2)n2nc(-c3ccncc3)nc2N1 (stereo not drawn) | inconclusive: 0.891 µM [inhibitor, single point] | 
Cc1ccc(CN(CC(=O)NCc2ccccn2)S(=O)(=O)c2ccccc2)cc1 | inconclusive: 3.55 µM [inhibitor, full curve, poor fit] | 

Compound | Potency | activity change, negative = inhibition
NC(CCC(=O)NC(CCSC(CC(=O)O)C(=O)O)C(=O)NCC(=O)O)C(=O)O (stereo not drawn) |  | inactive: -0.474%
O=C(O)CCc1nn2cc(-c3ccccc3)nc2[nH]c1=O | inconclusive: 22.4 µM [inhibitor, partial curve] | 
CC1CCCC(NC(=O)c2ccc(COc3ccccc3)o2)C1C (stereo not drawn) | inconclusive: 7.08 µM [inhibitor, single point] | 
Cc1ccc2c(c1)N(C(=O)CCC(=O)N1CCCCC1)CCO2 | inconclusive: 6.31 µM [inhibitor, single point] | 
COCc1cc(C)nc(OCC(=O)N/N=C/c2ccc(C)cc2)c1C#N |  | inactive: -9.18%
CCCSc1ccc2nc(-c3ccccc3)cn2c1 |  | inactive: 15.2%
CC12CCC(=O)N1C(C(=O)Nc1ccc(F)cc1)CS2 (stereo not drawn) | inconclusive: 0.708 µM [inhibitor, single point] | 
Cc1ccc(C)n1C1CCS(=O)(=O)C1 (stereo not drawn) |  | inactive: -0.555%
C[C@@]12CCC(=O)C=C1CC[C@H]1[C@H]3CC[C@](O)(C(=O)CO)[C@]3(C)CC(=O)[C@@H]12 | inconclusive: 15.8 µM [inhibitor, single point] | 
COc1ccc(N2CCN(C(=O)c3noc4c3CCCCC4)CC2)cc1 | inconclusive: 20 µM [inhibitor, single point] | 
COc1ccc(-c2csc3nc(-c4ccccc4F)oc(=O)c23)cc1 | inconclusive: 1.12 µM [inhibitor, partial curve] | 
CC(=O)OC(C)(C)C1Cc2cc3ccc(=O)oc3cc2O1 (stereo not drawn) | inconclusive: 28.2 µM [inhibitor, single point] | 
O=C(COc1ccc(Br)cc1Cl)NC1CCN(Cc2ccccc2)CC1 | inconclusive: 2.51 µM [inhibitor, partial curve] | 
COCCn1c(SCC(=O)NNC(=O)Cc2ccccc2)nc2ccccc2c1=O |  | inactive: -0.8%
CCn1c2ccccc2c2cc(C3C(C#N)=C(C)NC(C)=C3C#N)ccc21 | inconclusive: 28.2 µM [inhibitor, single point] | 
CCCCc1cc2ccccc2c(OCCN(C)C)n1 | inactive and inconclusive: 12.6 µM [inhibitor, single point] | 
COc1ccc(C2CC(=O)Nc3c2c(C)nn3-c2nc(C)cc(C)n2)c(OC)c1OC (stereo not drawn) |  | inactive: -4.02%
CN(C)c1nc(Nc2ccc(F)cc2)nc(Oc2ccc(F)cc2)n1 |  | inactive: -1.2%
COc1ccc(/C=C/c2nc(-c3ccccc3O)n(-c3ccccc3)n2)cc1 | inconclusive: 17.8 µM [inhibitor, single point] | 
CC1=C(C(=O)Nc2ccccn2)C(c2ccccc2)n2ncnc2N1 (stereo not drawn) | inconclusive: 1.26 µM [inhibitor, full curve, poor fit] | 
Cc1ccc(CNC(=O)CCS(=O)(=O)c2ccc(Br)cc2)cc1 | inconclusive: 17.8 µM [inhibitor, partial curve] | 
Cc1cccc(N2CCN(C(=O)CCCn3c(=S)[nH]c4cc5c(cc4c3=O)OCO5)CC2)c1C | inconclusive: 25.1 µM [inhibitor, single point] | 

3 consecutive records out of the list so far, quoted:
Compound | Potency | activity change, negative = inhibition
N#Cc1c(SCC(=O)Nc2nc3ccccc3s2)sc2c(O)cc(=O)[nH]c12 | inconclusive: 1.12 µM [inhibitor, full curve] | 
COc1cccc(NC(=O)Cn2c(=O)n(Cc3nc(-c4ccccc4)no3)c(=O)c3ccccc32)c1 |  | inactive: -11.5%
Cc1sc(NC(=O)c2ccc(OCC(C)C)cc2)c(C(N)=O)c1-c1ccc(Cl)cc1Cl | inconclusive: 39.8 µM [inhibitor, single point] | 
